From article PMC4691890 come the findings set out here.

The assay addresses T1, full-length human Apaf-1 (residues 1–1248) (human), O14727.
T1 chain: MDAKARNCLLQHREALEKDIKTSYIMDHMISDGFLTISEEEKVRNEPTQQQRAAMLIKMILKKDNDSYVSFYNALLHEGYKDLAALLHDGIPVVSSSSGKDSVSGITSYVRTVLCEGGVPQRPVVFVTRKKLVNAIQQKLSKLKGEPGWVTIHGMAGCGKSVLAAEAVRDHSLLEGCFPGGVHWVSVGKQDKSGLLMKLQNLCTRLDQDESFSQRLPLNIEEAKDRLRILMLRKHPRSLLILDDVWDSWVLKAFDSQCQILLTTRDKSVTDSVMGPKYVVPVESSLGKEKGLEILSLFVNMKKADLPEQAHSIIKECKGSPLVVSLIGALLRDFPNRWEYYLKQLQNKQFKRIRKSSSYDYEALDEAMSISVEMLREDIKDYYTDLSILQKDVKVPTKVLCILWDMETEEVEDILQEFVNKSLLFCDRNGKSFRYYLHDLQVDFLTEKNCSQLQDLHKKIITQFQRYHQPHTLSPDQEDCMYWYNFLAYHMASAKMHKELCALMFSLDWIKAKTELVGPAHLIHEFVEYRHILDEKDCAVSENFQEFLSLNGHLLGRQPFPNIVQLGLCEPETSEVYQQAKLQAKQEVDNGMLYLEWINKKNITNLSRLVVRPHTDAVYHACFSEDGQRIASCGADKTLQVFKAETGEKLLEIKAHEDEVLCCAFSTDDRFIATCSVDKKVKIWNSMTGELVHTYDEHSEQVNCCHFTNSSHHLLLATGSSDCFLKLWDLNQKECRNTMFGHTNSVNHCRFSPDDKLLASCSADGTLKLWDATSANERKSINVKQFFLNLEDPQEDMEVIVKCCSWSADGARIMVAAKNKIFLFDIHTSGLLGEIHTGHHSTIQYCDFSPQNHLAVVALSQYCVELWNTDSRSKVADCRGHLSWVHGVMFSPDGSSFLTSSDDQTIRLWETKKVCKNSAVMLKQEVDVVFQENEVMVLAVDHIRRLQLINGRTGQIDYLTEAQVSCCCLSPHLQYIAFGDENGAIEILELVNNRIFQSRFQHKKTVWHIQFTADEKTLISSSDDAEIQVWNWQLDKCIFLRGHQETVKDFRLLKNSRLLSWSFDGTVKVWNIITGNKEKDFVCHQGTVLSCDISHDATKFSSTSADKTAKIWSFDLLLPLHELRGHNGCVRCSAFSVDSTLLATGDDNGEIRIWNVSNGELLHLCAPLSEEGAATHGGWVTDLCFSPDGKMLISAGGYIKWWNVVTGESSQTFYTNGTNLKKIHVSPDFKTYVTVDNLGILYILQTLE
In words: SEC; gel filtration of apoptosome formation: Apaf-1 with CytC in the presence of 1 mM dATP; both purified. The settings on record: remark: other sources report otherwise. A general note: SEC sorts molecules by how far they enter the pores of the column.

No constants are given. Whether binding was seen depends on the method and setting. Some results given as binding are weak or reduced against the parent protein; the word gives no strength.

B1: full-length human Apaf-1 (residues 1–1248), O14727 1-1248 (natural protein)
chain: T1 chain
In the case of B1, the binding entry is on record as “binds”.
